Experimental findings from PubChem BioAssay AID1508600 (Functional Genomics Laboratory (NCATS/FGL), 2020) are described below.

The campaign covered roughly 53,000 sequences. About 3,700 (7%) were called active.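 How the source made its calls: active means gene knockdowns whose robust z-score for IL-1 alpha signal is at least 2 or at most -2, so actives lie on both sides; inactive means the rest.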 The list shows a part of the results.

The assay can be described thus: Components of the Cytosolic LPS Sensing Pathway: Gene Identification via Genome-wide siRNA Screen. Conditions: RAW264.7 macrophages, IL-1a HTRF, actives lie on both sides, screened at 100 nM (by protocol), cells primed 5 h with Pam3CSK4 first. From the text: Non-canonical inflammasome activation by cytosolic LPS is a critical component of the host response to Gram-negative bacterial infection, however we lack a comprehensive understanding of the cellular processes that control this pathway. Here we describe a genome-wide siRNA screen to identify genes regulating the mouse macrophage IL-1 alpha response to cytosolic LPS.
RAW264.7 cells were maintained in complete DMEM media, comprising DMEM with 4.5 g/L glucose, 10% FBS (Gemini Bio-Products, West Sacramento, CA), 2 mM Glutamine (Lonza) and 20 mM HEPES (Lonza), hereafter complete DMEM.
The RNAi screen was conducted in 384-well format using the Ambion Silencer Mouse Genome siRNA Library (#4391425), which consists of three unique, nonoverlapping, nonpooled siRNAs for each of 17,000 gene targets. siRNA reagents ([…]) were stamped into 384-well white flat-bottom microplates (Corning, 3570) using a Velocity11 VPrep liquid handling system (Agilent) integrated into a BioCel robotic platform (Agilent) in columns 1-22, leaving columns 23-24 empty for negative (Ambion, Negative control #1) and positive (mouse Casp4) controls, respectively. The median value of each plate's negative control column was used to normalize sample wells, and the positive control was used to assess transfection efficiency and assay performance.
Lipofectamine RNAiMAX Transfection Reagent ([…]; Invitrogen) was added in […] serum-free, antibiotic-free media to plate wells using a Thermo Scientific Matrix WellMate and Microplate Stacker. Plates were incubated for 45 min at room temperature to allow for the sufficient formation of siRNA-lipid complexes. Cells were seeded at a density of 1x10^4 cells per well in 20 microL media containing 20% (vol/vol) FBS without antibiotics. The final concentration of siRNA in each well was 100 nM. Cells were cultured for 48h at 37 degrees C in 5% CO2 before addition of […] of TLR ligand Pam3CSK4 for 5 hours. The medium was then removed, replaced with […] growth media and cell were transfected with […] of LipidA and TransIT-TKO (Mirus) for 24 hour. At the end of the LipidA treatment, […] of supernatant was transferred to a 384 Greiner Bio-one non-binding low volume plate and […] of IL-1a HTRF reagent (Cisbio, 62MIL1APEH) was added and incubated at room temperature overnight. The plates were read on an EnVision plate reader (PerkinElmer). Cell viability was measured by adding 20ul Cell Titer Glo to the original plate and running a luminescence read on the EnVision. The quantified IL-1a signal for each siRNA gene-targeted well was divided by the median of the negative control wells and multiplied by 100 to achieve a negative control normalized value for each well/siRNA. This normalized value was then used to generate a robust z-score by first taking the log of each value and then by subtracting the median and dividing by the […].
In the case of CCCUCAUUGUGGUUACCAUTT against Olfr1428, the z-score was inactive: -0.203.
With CCUAGUAGCUCAGACACCGTT against Evx1, the z-score was inactive: -0.869.
The figure for GGAAUUCACAUUUGACUGUTT against Irx3os is inactive: 0.31; for GGACUAAGCAAUCUCUUUUTT against Gspt2 it is inactive: 0.81; for GGUCUGCUAUGAAAUUAUGTT against Tmem14c it is inactive: -0.537.
Under GGAUCUCCUAAUAUUUAUCTT against Plekha1 stands inactive: -0.703.
Take GGUGGAUGAAGAGUAUAAGTT against Phka2: the z-score was inactive: 0.338.
As to GGAGGAACUCGAAUCUCAGTT against Adamts19, the z-score is inactive: -0.561.
Take GCACAUCAUUGCUACAGAGTT against Mars1: the z-score is inactive: -1.17.
Under “CCUUAAAACUUCAGGGCUCTT against 1700055D18Rik” stands inactive: -0.287; under GCUUGUCCACAUUGCCUUCTT against Olfr33, inactive: 0.716.
Take “CCACCAGUUAUCCGAAUCATT against 4932414N04Rik”: the z-score is inactive: 1.36.
Under GGAGUUCAGGAAAAUUCUUTT against Fsd1l stands inactive: 0.0551; under GGAGCUUCAUCUUUCAAGATT against Uqcrc2, inactive: -0.0657; under GGCUCAGAAAAUUGAUCGATT against Cyth2, inactive: -1.05.
ACUAUCUGUACAACGUGCUTT against Kcnq5: the z-score was inactive: -0.166.
The figure for CGAAAUGAAAACUUCCUGGTT against Mab21l1 is inactive: 0.989; for GGUGCAAGAUAGUACGAUGTT against Gle1 it is inactive: -0.649; for GGUGGAUAUAAUAAUUGACTT against Tgfbr3 it is inactive: 1.06.
In the case of GGGUUGUUUGCUGGUUUGUTT against Tmbim4, the z-score was inactive: 0.885.
Under CCUAUGGUAGAAAAAUACUTT against Fundc1 stands inactive: -0.252; under GCAUUAGAAGAACUACUGATT against Gdpd2, inactive: -0.0764.
Regarding GGACUCUUUCGCUGCAUGATT against Sucla2, the z-score was inactive: -1.4.
Under GCCCUAGUCUUCUACAGCUTT against Gpr18 stands inactive: -0.982.
Regarding GGAGAUGUUGUUUGCUACUTT against Tango2, the z-score is inactive: 0.619.
As to CCUAGACUUGAACAAACACTT against Lsm12, the z-score was active: -2.11.
Under GGUGACUGGAAAAGAGGCUTT against Spink1 stands inactive: -0.073.
Under “GGUUAUCCUUCCCAGAAUUTT against 1110059E24Rik” stands inactive: 0.776; under GGUGAAUUUGAUUGAUGAGTT against Ccnl2, active: -2.3; under GCAGUGCCUGCAGAUUCUUTT against Rnf208, inactive: 1.06.
Under GGAAACAUGACAGCUGCUCTT against Arpc5 stands inactive: 1.12; under GGAAGGAGUUCGAAGUCAUTT against Ralgds, inactive: 0.902; under GGGCGAAGGGAUUACUAUUTT against Rhpn1, inactive: -0.325.
Turning to “GAACUUUAUCACCUGCUUCTT against C030006K11Rik”, the z-score was inactive: -0.112.
Turning to GCCUAUUGGGUCUACCUCCTT against C8g, the z-score was inactive: -0.398.
Take GGAUUUGUGCCCUCCUUUCTT against Ucp3: the z-score was inactive: 1.27.
Under GGUACAGCUUAUGGAUUAATT against Pdgfra stands inactive: -0.193; under GGUCAUUUAUGAGAGGGCUTT against Thap11, inactive: 0.378; under GGAAGAACUUGUCUCUUUUTT against Tmtc2, inactive: 0.501.
Regarding CCAAUAGCUUCCAGAAACATT against Exoc3l4, the z-score is inactive: -1.93.
The figure for GGAGUAUGCCCAUUCCAUCTT against Grm8 is inactive: -0.474; for GGGUUGUAUGGCUCAAAUATT against Olfr728 it is inactive: 0.734; for CCCUAUCUUCAGGCCAUUGTT against Gm10283 it is inactive: -1.97.
On to GGCAGUGUUUGGCAAAUAUTT against Rbmx, for which the z-score is inactive: 0.945.
Regarding GCAGCUGGCUGCUUUCACATT against Tmem201, the z-score was inactive: -0.344.
Regarding GGAAUUCAUGACCUUUACATT against Ykt6, the z-score is inactive: 0.657.
The figure for GCAUCCUUUGUCGAAGUGGTT against Clec18a is inactive: -0.495.
Under GCUUGUGAUCGACUCUGCATT against Acap3 stands inactive: -1.6; under GGUCCCUGCUUUGAUUCGATT against Olfr90, inactive: 0.502; under GGACAAAGAAAAAGAUUCCTT against Stxbp6, inactive: -0.169.
The figure for GGACGUGGUGUAAAAUAGCTT against Cdkn2b is inactive: -0.241; for GGUGUAUGGCUUCUGUUGATT against Rab35 it is inactive: 1.37; for CCCAAAACUCUAGCUACUATT against Olfr824 it is active: -3.03.
In the case of GCAAAGUUACCUCAGUUCUTT against Olfr539, the z-score was inactive: 0.0366.
On to GGAGAGAGACACAAGCUUGTT against Map7d1, for which the z-score is inactive: 1.07.
The figure for GUAAUCUGGCGAUUGUCUGTT against H2ac4 is inactive: -0.783; for GGGAAAUCCGAUAUUCCCUTT against Lats2 it is inactive: 1.1.
As to GGAACAGUUUCUAAAACAGTT against Mapkbp1, the z-score is inactive: -1.83.
Turning to CCUAUGGCAUCGUGUAUCGTT against Cdk10, the z-score was inactive: 0.566.
The figure for GCACUUACCGGAUCCAUUGTT against Clk4 is inactive: -0.793; for CGCAGACAACAGAUAAGAATT against Pdpn it is inactive: -0.589; for GCUGAGACCUUUAUUUAAATT against Col11a2 it is inactive: 0.955.
Turning to GGUGCAGGCUCUCAAGAAGTT against Ccdc106, the z-score is inactive: 0.779.
Under GGGUUUCUGCAUUGACAUUTT against Grin2d stands inactive: -0.247.
On to GGCUGUUCGUACUAUAGCUTT against Gpr119, for which the z-score is inactive: 0.334.
For GGCUGUUCAAAGUGACCCUTT against Hbp1, the z-score is active: -3.11.
For the sequence GGAAUAUUCUCUCAUCACATT against Mmachc, the z-score was active: -2.07.
As for CGCACUUUGGCUUGUAAUUTT against Smad6, the z-score was inactive: 0.327.
With GGAAGAAGUUGGAGAUGUUTT against Hsd17b11, the z-score is inactive: -0.629.
Under CGACCGGUGUCUUGCUUUUTT against Hint1 stands inactive: 0.318; under GGAAUAUUUUUUCUGGGAGTT against Ugt8a, inactive: -0.108.
On to GGUAAAUUUGACUACCUGGTT against Fbxo36, for which the z-score is inactive: 0.129.
Under GCAACAAAUUUGAAUCAGATT against Chic2 stands inactive: -0.185.
Turning to CCGACACAAGAUGCUCAGUTT against Tmem9, the z-score is active: -2.3.
The figure for AGAAGAUACCGAUCAAGCGTT against Nsmce3 is inactive: 0.049.
Regarding GCUUGUCAUUCUUGUUGUATT against Olfr348, the z-score was inactive: -0.208.
As for GCAUUGAGCUCGACUUCUGTT against Cpa3, the z-score was inactive: -0.533.
On to GCACUCUCAGCAUUGGAUUTT against Sec22b, for which the z-score is inactive: -0.751.
The figure for GGAUAUGCUCAGAGGUUUUTT against Pex11g is active: 2.2; for GGAAACCAGAAAAACUGAATT against Parg it is inactive: 0.653; for GGUUAAGUUCCUCUGGAACTT against Pnliprp2 it is inactive: -0.0719.
Turning to GGCUACUUUUUGGAACAUCTT against Uqcrc1, the z-score is inactive: 0.722.
The figure for GGUCGGAUGGAUUCAAAUUTT against Rab3gap2 is inactive: 1.69.
For the sequence CCUGUAAAGUUCUUGUCGGTT against Ccrl2, the z-score is inactive: 0.45.
Under CCUGAACAUGAGUUAAAAGTT against Lmo4 stands inactive: 0.156; under “GGCACCUUUCAGAAAUCCCTT against 4931406B18Rik”, inactive: -1.58.
The figure for GGCAAUGAGUCUGACCUCUTT against Capg is inactive: -1.39; for GCUGCUAUGACCUAUGGCATT against Sptlc2 it is inactive: -0.543.
For the sequence GCCCAUUAUUGCUGAGACUTT against Fam24a, the z-score was inactive: -1.6.
For CCCAAUGUCCCAACUCACATT against Baalc, the z-score was inactive: -0.341.
The figure for GGACAAGUCGAGUUUCAAGTT against Zfp503 is inactive: 1.98.
Consider CCAAUGAAACAUUUACUUCTT against Stmn4, for which the z-score was inactive: -0.045.
Consider GCUGUUGAUGUAGUUUGGUTT against Dctd, for which the z-score was inactive: -0.131.
Under GGUCAGAAGGUGUGUUAUATT against Rad52 stands inactive: 0.338; under GGACCUGGACCUUUUAGAGTT against Vegfb, inactive: 1.34.
GGUAGAAUUACUGUGUACUTT against Slc26a4: the z-score is inactive: -1.47.
For the sequence GGCAUUUGAAGAUGUUUCUTT against Hmgb3, the z-score is inactive: 0.202.
In the case of GGCCGUGGUAGAUUUCCUCTT against Klhl36, the z-score was inactive: 0.425.
Take GGAUGUGAUCCUUUUUUGATT against Nat8f2: the z-score was inactive: -0.801.
Under GCCAAAAUAAUCCUUGGGATT against Doxl1 stands inactive: -0.434; under CGUGGAUAAAGAUAACCCGTT against Znrd2, inactive: -0.117.
In the case of GGCAAAGACAAGAAGCUGUTT against Drap1, the z-score was inactive: -0.445.
Under GGACAGUGAACUUUUGACCTT against Nkain4 stands inactive: 0.764.
Regarding GGAACAGCAGCAUCACAGUTT against Eml3, the z-score is inactive: -0.0844.
The figure for CCAAAGCCUGAAAUGGUGGTT against Cxcr4 is active: -2.36; for GCGUGCAGCCCUCAAUGAATT against Ppp2r5b it is inactive: 0.84.
